Results are given in words; binding and its absence hold for the method and conditions named. In cells and extracts the contact can be indirect. Sequences can lack the tags named with a protein.
Target: T1, OsSHMT fused with a YFP fragment for BiFC (rice (Oryza sativa subsp. indica, Dular)) (UniProt Q10D68)
T1 sequence: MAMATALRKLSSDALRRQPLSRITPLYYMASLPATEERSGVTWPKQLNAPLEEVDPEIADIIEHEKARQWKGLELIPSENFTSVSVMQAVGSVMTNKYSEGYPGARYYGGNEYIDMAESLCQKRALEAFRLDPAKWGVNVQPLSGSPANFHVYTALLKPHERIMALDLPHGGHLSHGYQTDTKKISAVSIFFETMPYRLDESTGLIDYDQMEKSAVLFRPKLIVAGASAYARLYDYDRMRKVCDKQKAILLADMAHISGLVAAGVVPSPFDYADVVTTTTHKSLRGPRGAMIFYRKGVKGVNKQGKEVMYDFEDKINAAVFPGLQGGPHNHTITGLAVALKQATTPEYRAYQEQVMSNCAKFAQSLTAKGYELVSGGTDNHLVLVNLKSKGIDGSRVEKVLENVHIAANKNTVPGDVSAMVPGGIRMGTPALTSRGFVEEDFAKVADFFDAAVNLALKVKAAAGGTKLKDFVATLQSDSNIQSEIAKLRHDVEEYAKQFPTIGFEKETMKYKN
Test: split reporter; BiFC: YFPn and YFPc fusions co-expressed by transient transformation in leaves of Nicotiana benthamiana; YFP fluorescence by laser confocal microscopy, 488-nm excitation

binding: no binding
B1: OsNIP2;1 (Lsi1-encoded nodulin 26-like intrinsic protein) fused with the N-terminal domain of YFP (protein, UniProt Q6Z2T3 1-298)
chain: MASNNSRTNSRANYSNEIHDLSTVQNGTMPTMYYGEKAIADFFPPHLLKKVVSEVVATFLLVFMTCGAAGISGSDLSRISQLGQSIAGGLIVTVMIYAVGHISGAHMNPAVTLAFAVFRHFPWIQVPFYWAAQFTGAICASFVLKAVIHPVDVIGTTTPVGPHWHSLVVEVIVTFNMMFVTLAVATDTRAVGELAGLAVGSAVCITSIFAGAISGGSMNPARTLGPALASNKFDGLWIYFLGPVMGTLSGAWTYTFIRFEDTPKEGSSQKLSSFKLRRLRSQQSIAADDVDEMENIQV
